Experimental data published in patent publication US20200055913A1.
Results are given in words; binding and its absence hold for the method and conditions named. For part of these data: Binding seen in cells or lysates may run through a third protein. Some entries that bind do so weakly or less than the wild type.

Chains of the proteins cited; added tags and fusions are not shown. Lines headed by an entry give the natural chain unless they say otherwise; changes in a name come on top. Residues count along the entry.
UniProt O00206, residues 24-631: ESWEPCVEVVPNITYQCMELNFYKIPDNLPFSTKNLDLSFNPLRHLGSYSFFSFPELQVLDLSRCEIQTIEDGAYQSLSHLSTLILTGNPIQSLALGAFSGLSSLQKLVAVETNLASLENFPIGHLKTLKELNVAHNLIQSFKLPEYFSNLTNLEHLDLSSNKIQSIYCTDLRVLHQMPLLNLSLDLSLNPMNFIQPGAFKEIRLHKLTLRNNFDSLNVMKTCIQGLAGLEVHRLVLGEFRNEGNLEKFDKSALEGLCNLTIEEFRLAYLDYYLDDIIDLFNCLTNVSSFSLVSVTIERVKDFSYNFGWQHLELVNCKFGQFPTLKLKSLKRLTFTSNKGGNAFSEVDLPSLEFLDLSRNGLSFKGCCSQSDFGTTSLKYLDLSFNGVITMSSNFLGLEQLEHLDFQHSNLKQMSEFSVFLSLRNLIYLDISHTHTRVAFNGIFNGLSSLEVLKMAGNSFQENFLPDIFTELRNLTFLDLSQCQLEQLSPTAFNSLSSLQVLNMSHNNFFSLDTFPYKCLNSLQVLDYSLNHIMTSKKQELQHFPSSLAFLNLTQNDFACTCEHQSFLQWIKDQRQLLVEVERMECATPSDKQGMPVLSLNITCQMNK
UniProt Q9QUK6, residues 26-835: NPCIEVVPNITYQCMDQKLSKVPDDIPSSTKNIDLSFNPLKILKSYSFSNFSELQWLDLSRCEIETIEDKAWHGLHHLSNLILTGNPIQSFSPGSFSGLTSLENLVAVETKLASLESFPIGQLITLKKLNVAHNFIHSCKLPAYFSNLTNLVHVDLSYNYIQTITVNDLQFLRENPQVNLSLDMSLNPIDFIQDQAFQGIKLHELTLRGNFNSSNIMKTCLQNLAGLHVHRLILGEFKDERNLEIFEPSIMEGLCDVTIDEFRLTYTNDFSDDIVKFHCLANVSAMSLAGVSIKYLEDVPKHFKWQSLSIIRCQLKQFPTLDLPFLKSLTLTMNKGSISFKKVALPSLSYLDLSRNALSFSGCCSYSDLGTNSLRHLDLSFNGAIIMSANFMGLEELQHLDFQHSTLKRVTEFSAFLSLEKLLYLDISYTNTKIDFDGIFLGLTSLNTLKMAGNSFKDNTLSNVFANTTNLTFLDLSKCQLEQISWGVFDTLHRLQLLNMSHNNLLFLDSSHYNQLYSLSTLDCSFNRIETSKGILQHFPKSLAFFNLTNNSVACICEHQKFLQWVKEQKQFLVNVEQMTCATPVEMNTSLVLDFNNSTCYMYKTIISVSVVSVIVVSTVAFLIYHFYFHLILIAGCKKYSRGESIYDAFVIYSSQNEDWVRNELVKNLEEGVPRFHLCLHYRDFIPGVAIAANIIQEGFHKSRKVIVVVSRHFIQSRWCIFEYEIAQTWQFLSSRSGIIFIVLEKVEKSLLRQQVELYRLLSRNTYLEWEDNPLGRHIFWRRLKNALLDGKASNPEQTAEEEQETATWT
UniProt Q9HD89: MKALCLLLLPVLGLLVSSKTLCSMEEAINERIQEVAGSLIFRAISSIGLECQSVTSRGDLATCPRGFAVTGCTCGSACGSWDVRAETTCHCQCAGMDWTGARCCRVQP

How the values were obtained:
[1] = molecular target: histidine (his)-tagged human TLR4 (human) (UniProt O00206); test: pull-down on nickel-NTA agarose beads, anti-hRetn Western blot
[2] = molecular target: histidine (his)-tagged human TLR4 (human) (UniProt O00206); test: pull-down and peptide competition (summary of the examples)
[3] = molecular target: mouse TLR4 on lung and peritoneal cells of Tlr4+/+ mice (mouse) (UniProt Q9QUK6); test: flow cytometry on day 7 Nb-infected Tlr4+/+ and Tlr4-/- lung cells
[4] = molecular target: mouse TLR4 on lung and peritoneal cells of Tlr4+/+ mice (mouse) (UniProt Q9QUK6); test: flow cytometry, hRetn cellular binding assay on lung cells of Nb-infected Tlr4+/+ or Tlr4-/- mice

Measured: binding

mammalian cell-derived human resistin (hRetn), 293T cell-derived (LifeSpan Biosciences) (from UniProt Q9HD89 19-108) (ligand)
binds: [1] | [2]

recombinant human resistin (hRetn), E. coli-derived (Peprotech) (from UniProt Q9HD89 17-108) (ligand)
binds: all assays above
